# Experimental data published in US20250228235A1, “METHODS TO IMPROVE ORRGAN VIABILITY” (Mallinckrodt Pharmaceuticals Ireland Limited, priority 2017, published 2025).
# System: 4-week-old swine
# Assay: Blinded, randomized, controlled pediatric swine asphyxial model of cardiac arrest (survival, cerebral blood flow, hemodynamics)
# Format: in vivo
# Conditions: iNO 20 ppm vs placebo
# Source text: Neurologic injury following pediatric cardiac arrest (CA) remains common. Inhaled nitric oxide (iNO) may mitigate cerebral mitochondrial dysfunction, a critical convergence point for secondary brain injury, triggered by CA. It was hypothesized that following asphyxia and cardiac arrest, animals treated with 20 ppm iNO during CPR and four hours post-return of spontaneous circulation (ROSC) will have improved cerebral blood flow (CBF) and improved mitochondrial function as defined by increased respiratory control ratio (RCR) and decreased mitochondrial reactive oxygen species (mtROS) compared with placebo.
# 4-week-old swine received 7 minutes of asphyxia, then ventricular fibrillation. Guideline CPR was performed with compression depth (CD)≥⅓ of the chest diameter and standard epinephrine continued for 10 mins or until ROSC, with protocolized post-ROSC care. In a blinded fashion, subjects were randomized (iNO 20 ppm initiated 1 minute into CPR period, n=10, or placebo, n=10). […] Baseline and continuous CBF measurements were taken using invasive clinical and non-invasive optical instrumentation. Cortical and hippocampal tissue were analyzed by high-resolution respirometry to assess mitochondrial function. T-tests and ANOVA were used where applicable. Longitudinal hemodynamic variables were compared using generalized estimating equations to control for within-subject correlation.
smiles,measurement,value
"[N]=O [iNO, nitric oxide]",systemic or pulmonary hemodynamics,no differences
